These are yes or no findings as the source states them, for the method shown. Binding seen in cells or lysates may run through a third protein. Some binding calls cover weakened binding; strength is not graded here.
Experiments:
[1] = biological target: RUNX1, wild type, tagged (plasmid) (UniProt Q01196); experiment: co-IP; total lysates of HEK 293T cells expressing wild type or truncations of RUNX1 and NPM1; precipitated and blotted with antibodies against HA or MYC tags
[2] = biological target: Runt-related transcription factor 1 (RUNX1) (human (endogenous in GBM cells)) (UniProt Q01196); experiment: co-IP; endogenous proteins of GBM cells; NP-40 lysis buffer; anti-RUNX1 or anti-NPM1 antibody with magnetic beads overnight at 4 °C; western blot; also done after siRNA depletion of NPM1 in N9 and TBD0220 cells
[3] = biological target: Runt-related transcription factor 1 (RUNX1) (human (endogenous in GBM cells)) (UniProt Q01196); experiment: proximity ligation; fixed and permeabilised GBM cells, two primary antibodies, PLA plus and minus probes, confocal microscopy

Protein sequences, listed by entry. Tags and fused reporters are not part of them.
UniProt Q01196: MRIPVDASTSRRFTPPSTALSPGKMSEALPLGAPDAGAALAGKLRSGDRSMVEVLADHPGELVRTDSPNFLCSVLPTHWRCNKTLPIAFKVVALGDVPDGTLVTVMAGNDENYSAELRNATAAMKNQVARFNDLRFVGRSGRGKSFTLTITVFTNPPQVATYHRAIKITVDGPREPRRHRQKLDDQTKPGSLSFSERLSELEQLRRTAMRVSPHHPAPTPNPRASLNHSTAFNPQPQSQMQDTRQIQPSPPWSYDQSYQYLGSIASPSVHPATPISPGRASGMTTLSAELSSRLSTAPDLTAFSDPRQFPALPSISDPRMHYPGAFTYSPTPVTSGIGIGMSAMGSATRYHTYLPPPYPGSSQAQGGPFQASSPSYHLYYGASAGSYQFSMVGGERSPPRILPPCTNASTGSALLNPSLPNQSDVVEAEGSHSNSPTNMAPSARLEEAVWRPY
UniProt P06748: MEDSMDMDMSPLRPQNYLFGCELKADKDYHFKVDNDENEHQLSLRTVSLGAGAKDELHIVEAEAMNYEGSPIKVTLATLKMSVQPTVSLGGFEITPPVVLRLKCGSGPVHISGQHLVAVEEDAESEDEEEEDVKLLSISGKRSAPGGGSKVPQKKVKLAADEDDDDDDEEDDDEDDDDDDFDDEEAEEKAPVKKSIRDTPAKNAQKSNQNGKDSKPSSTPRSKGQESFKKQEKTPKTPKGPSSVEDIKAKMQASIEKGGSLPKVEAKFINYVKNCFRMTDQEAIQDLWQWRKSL

binding [1]	binding [2]	binding [3]	Substance
binds			NPM1, wild type, tagged (plasmid) (from UniProt P06748 1-294)
	binds	binds	Nucleophosmin 1 (NPM1) (from UniProt P06748 1-294)
